Laboratory results taken from the supplement of paper PMC10849652.
The other results are listed elsewhere or left out. Residues, ends and D or L forms follow the SMILES beside them. *: point of attachment. Cbz = O=C(OCc1ccccc1)*

Protein sequences, listed by entry. Tags and fused reporters are not part of them. Lines headed by an entry give the natural chain unless they say otherwise; changes in a name come on top.
UniProt P38570: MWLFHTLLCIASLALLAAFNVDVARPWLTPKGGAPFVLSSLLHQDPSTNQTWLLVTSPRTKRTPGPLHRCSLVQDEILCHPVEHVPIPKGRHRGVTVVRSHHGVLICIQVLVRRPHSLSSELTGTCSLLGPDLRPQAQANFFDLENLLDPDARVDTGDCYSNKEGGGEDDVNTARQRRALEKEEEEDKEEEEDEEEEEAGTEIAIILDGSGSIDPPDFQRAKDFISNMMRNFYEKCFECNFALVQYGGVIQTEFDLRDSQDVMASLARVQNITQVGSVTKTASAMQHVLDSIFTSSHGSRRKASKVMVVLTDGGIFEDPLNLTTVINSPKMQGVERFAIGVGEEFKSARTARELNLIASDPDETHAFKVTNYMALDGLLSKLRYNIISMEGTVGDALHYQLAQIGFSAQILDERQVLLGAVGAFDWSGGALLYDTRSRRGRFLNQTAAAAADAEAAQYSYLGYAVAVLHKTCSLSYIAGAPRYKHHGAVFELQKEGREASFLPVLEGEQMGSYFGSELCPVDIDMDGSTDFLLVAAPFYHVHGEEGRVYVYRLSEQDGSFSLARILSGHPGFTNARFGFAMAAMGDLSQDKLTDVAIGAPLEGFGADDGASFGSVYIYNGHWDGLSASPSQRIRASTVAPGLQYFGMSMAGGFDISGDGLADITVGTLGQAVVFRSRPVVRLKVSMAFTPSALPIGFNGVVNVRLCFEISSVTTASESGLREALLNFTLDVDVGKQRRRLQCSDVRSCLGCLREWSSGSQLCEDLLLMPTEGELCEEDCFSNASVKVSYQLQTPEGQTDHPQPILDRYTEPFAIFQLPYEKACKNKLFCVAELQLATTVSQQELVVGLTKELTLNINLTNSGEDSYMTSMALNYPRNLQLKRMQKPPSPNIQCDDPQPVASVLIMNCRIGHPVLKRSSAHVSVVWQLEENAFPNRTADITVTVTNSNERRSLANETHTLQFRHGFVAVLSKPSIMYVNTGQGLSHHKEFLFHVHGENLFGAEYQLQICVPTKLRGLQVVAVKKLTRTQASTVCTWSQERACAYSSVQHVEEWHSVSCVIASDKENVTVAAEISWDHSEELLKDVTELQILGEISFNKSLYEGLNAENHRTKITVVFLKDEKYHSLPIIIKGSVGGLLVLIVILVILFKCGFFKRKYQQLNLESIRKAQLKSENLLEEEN
UniProt P08514, whole entry, looked up: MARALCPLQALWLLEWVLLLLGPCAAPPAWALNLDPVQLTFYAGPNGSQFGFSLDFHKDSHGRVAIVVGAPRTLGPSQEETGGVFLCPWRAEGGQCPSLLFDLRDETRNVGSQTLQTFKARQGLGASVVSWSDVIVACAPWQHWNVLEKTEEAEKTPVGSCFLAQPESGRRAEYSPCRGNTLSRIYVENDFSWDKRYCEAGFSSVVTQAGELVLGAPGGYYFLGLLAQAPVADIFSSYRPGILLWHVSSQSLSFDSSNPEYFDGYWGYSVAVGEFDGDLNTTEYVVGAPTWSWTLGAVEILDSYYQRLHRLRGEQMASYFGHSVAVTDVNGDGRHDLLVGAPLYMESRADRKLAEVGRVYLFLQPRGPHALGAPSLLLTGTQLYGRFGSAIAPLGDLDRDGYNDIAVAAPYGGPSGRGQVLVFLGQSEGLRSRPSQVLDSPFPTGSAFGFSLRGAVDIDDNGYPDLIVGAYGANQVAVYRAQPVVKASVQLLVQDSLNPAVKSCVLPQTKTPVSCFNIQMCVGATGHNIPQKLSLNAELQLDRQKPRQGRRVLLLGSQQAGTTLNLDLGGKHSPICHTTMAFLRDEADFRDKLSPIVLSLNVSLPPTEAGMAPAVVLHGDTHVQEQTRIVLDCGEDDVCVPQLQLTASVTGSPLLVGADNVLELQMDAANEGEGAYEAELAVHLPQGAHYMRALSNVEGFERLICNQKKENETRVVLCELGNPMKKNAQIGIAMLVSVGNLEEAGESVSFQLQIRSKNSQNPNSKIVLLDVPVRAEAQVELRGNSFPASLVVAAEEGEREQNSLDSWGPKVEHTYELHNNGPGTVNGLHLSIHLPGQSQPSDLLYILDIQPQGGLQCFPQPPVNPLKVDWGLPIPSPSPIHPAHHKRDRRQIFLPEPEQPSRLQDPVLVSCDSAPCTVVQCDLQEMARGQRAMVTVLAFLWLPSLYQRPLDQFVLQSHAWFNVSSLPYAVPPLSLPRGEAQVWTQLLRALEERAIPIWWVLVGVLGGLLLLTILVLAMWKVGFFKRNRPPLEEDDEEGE
UniProt P50213: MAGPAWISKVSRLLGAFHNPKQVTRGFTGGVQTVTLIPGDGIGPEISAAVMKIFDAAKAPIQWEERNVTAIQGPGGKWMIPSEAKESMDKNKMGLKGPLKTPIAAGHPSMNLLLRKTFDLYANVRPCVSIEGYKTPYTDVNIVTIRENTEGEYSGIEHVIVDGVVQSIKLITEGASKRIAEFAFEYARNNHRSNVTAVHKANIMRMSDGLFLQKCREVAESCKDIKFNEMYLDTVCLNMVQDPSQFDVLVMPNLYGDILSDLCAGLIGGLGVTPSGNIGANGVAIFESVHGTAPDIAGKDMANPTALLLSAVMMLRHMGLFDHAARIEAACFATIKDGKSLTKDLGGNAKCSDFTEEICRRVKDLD
UniProt Q13422: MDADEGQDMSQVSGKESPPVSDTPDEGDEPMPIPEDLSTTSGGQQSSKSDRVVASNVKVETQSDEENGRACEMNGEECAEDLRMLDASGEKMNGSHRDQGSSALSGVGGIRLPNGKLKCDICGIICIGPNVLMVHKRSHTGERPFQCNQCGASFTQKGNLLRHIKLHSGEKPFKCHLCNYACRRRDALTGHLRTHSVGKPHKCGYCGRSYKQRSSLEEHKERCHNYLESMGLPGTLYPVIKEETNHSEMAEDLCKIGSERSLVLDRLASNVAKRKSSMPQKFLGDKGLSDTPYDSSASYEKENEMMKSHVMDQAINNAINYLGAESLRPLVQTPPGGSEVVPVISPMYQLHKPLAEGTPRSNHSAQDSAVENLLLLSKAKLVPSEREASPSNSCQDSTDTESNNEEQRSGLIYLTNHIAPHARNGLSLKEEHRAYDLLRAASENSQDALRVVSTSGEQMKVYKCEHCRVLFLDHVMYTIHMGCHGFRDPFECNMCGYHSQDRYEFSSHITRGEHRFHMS
UniProt Q9BT40: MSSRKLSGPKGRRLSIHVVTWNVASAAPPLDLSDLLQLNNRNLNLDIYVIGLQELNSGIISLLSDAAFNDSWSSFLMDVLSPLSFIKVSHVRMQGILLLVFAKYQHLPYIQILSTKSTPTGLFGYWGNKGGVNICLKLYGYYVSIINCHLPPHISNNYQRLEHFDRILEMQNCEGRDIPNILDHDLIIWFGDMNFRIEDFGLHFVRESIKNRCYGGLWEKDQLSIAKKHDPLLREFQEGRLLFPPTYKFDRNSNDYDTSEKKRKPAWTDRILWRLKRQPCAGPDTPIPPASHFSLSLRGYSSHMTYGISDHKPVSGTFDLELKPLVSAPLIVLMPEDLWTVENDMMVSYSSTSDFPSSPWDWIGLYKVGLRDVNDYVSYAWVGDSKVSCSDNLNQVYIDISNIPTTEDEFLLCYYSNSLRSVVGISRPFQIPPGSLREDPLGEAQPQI
UniProt Q6P9B9, whole entry, looked up: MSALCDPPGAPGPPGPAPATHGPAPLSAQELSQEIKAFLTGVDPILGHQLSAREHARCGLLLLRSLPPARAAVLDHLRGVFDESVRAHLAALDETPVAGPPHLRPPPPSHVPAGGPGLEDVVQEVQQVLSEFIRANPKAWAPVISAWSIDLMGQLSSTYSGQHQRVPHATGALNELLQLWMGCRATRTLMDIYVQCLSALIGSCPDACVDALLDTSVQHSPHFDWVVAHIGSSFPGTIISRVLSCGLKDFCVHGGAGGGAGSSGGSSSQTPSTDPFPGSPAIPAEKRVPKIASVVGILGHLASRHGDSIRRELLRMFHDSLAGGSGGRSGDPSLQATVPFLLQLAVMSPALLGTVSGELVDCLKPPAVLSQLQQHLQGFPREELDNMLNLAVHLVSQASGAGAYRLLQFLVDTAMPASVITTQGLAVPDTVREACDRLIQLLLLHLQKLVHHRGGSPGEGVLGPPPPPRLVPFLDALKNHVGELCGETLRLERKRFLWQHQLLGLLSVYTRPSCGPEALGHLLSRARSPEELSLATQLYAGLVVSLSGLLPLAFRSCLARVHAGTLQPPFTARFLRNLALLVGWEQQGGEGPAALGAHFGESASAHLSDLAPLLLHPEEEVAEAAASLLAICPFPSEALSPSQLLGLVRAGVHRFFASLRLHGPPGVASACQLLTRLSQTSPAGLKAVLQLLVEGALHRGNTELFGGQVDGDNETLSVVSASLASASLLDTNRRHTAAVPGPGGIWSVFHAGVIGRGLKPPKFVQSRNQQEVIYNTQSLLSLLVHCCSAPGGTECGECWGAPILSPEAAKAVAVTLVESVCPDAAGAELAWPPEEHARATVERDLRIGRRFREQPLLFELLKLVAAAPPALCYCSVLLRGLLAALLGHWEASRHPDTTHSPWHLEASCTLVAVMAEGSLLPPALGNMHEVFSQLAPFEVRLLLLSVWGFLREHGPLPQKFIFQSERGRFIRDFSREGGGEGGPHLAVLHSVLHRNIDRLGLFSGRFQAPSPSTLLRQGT
UniProt Q92551: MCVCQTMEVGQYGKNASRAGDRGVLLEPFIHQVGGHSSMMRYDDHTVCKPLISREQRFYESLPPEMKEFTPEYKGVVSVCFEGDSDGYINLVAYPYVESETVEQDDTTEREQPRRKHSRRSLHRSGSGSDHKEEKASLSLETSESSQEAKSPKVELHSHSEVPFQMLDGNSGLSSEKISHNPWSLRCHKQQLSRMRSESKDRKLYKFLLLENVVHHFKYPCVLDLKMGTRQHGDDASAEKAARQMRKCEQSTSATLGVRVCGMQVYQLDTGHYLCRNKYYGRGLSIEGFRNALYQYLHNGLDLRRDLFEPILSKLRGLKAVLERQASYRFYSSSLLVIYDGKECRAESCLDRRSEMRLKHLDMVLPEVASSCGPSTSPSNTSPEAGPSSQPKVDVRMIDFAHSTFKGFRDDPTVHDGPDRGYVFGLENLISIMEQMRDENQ
UniProt Q8IU81: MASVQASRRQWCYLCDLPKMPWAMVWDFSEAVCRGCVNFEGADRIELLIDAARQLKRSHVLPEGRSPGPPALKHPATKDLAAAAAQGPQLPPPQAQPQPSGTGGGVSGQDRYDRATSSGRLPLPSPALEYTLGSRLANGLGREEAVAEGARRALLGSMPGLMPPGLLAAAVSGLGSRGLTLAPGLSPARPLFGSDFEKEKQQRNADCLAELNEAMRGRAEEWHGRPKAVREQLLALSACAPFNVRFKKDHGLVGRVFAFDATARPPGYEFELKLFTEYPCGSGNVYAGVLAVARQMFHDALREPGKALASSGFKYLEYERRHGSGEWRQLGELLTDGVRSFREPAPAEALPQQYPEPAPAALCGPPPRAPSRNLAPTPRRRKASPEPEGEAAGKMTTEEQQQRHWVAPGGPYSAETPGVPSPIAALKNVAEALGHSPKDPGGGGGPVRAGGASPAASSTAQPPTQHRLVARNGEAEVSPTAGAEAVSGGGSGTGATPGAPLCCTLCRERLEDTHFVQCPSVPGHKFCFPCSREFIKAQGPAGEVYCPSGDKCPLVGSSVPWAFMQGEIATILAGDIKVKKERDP
UniProt P24593, whole entry, looked up: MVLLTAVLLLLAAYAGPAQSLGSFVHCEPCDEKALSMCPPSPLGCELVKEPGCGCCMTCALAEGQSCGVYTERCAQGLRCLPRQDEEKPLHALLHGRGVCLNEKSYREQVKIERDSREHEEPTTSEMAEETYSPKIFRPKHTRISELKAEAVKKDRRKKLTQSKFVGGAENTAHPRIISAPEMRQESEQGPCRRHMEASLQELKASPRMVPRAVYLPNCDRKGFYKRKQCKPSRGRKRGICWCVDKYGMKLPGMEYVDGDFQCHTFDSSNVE

Key:
Assay in all cases: log2 fold change, soluble protein after heating vs DMSO (PISA); higher = thermal stabilisation; K562 cells, 10 uM, 30 min; active = over 0.2 and 3.5 SD of the protein, either way, in both replicates (recomputed)
erlotinib = compound: C#Cc1cccc(Nc2ncnc3cc(OCCOC)c(OCCOC)cc23)c1 [erlotinib]
Procedure, shortened: (§1)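 Soluble protein was quantified by TMTpro 16plex LC-MS/MS after channel sums were equalised. It was obtained as the supernatant after 21,000xg for 90 min from pooled aliquots of K562 cells (2×10^6 cells/mL, 10 μM compound, 30 min) heated for 3 min across 48°C-58°C and extracted in PBS with 0.5% NP-40 at 4°C. Thermal stability values are relative to control samples and come from duplicates. They are given as log2 fold changes.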

[1] = compound: C1=CC(=C(C=C1Cl)C2=NC3=NC=CN=C3C(=N2)NC4=CC=NC=C4)F
Procedure, shortened: as §1

[2] = compound: C1=CC(=CC=C1C2=NC3=C(N2)C=C(C=C3)C(=O)N)OC4=CC=C(C=C4)Cl
Procedure, shortened: as §1

[3] = compound: C1=CC2=NC=CN=C2C=C1/C=C/3\C(=O)NC(=O)S3
Procedure, shortened: as §1

[4] = compound: C1=CC=C(C=C1)C2=NC(=C(N2)C3=CC=NC=C3)C4=CC(=C(C=C4)Cl)O
Procedure, shortened: as §1

IRAK-1-4 Inhibitor I = compound: C1COCCN1CCN2C3=CC=CC=C3N=C2NC(=O)C4=CC(=CC=C4)[N+](=O)[O-] [IRAK-1-4 Inhibitor I]
Procedure, shortened: as §1

ibrutinib = compound: C=CC(=O)N1CCC[C@@H](n2nc(-c3ccc(Oc4ccccc4)cc3)c3c(N)ncnc32)C1 [ibrutinib]
Procedure, shortened: as §1

ralimetinib = compound: CC(C)(C)Cn1c(N)nc2ccc(-c3[nH]c(C(C)(C)C)nc3-c3ccc(F)cc3)nc21 [ralimetinib]
Procedure, shortened: as §1

[5] = compound: CC(C)(O)CC(=O)NCCn1ccc2ncnc(Nc3ccc(Oc4cccc(C(F)(F)F)c4)c(Cl)c3)c21
Procedure, shortened: as §1

[6] = compound: CC(C)C1=C2N=C(C=C(N2N=C1)NCC3=CC=CC=C3)NCCCCCCN
Procedure, shortened: as §1

[7] = compound: CC(C)C[C@@H](C=O)NC(=O)[C@H](CC(C)C)NC(=O)[C@H](CC(C)C)NC(=O)OCc1ccccc1
Procedure, shortened: as §1

pinometostat = compound: CC(C)N(C[C@H]1O[C@@H](n2cnc3c(N)ncnc32)[C@H](O)[C@@H]1O)[C@H]1C[C@@H](CCc2nc3cc(C(C)(C)C)ccc3[nH]2)C1 [pinometostat]
Procedure, shortened: as §1

[8] = compound: CC1=C(C(CC(=O)N1)C2=CC=C(C=C2)C(F)(F)F)C(=O)NC3=C(C=C4C(=C3)C=NN4)F
Procedure, shortened: as §1

[9] = compound: C/C(=N\NC(=O)C1=CC(=CC=C1)S(=O)(=O)N2CCOCC2)/C3=C(C=CC(=C3)Cl)O
Procedure, shortened: as §1

[10] = compound: C1=CC2=C(C=CC(=C2)/C=C\3/C(=O)NC(=NCC4=CC=CS4)S3)N=C1
Procedure, shortened: as §1

[11] = compound: C1=CC=C2C(=C1)C3=NNC4=CC=CC(=C43)C2=O
Procedure, shortened: as §1

[12] = compound: C1CCN(C1)C(=O)NC2=CC=CC(=C2)NC3=NC=C(C(=N3)NCCC4=CN=CN4)Br
Procedure, shortened: as §1

[13] = compound: C1CN(CCC1(CC2=CC=C(C=C2)Cl)N)C3=NC=NC4=C3C=CN4
Procedure, shortened: as §1

[14] = compound: CC(=O)c1cnc2ccc(-c3cc(Cl)c(O)c(Cl)c3)nc2c1N[C@H]1CC[C@H](CN(C)C)CC1
Procedure, shortened: as §1

[15] = compound: CC1=C(C2=C(C=C1)C(=O)C3=CC=CC=C3N2CCCN)C
Procedure, shortened: as §1

Row | Target | log2 fold change (erlotinib) | log2 fold change [1] | log2 fold change [2] | log2 fold change [3] | log2 fold change [4] | log2 fold change (IRAK-1-4 Inhibitor I) | log2 fold change (ibrutinib) | log2 fold change (ralimetinib) | log2 fold change [5] | log2 fold change [6] | log2 fold change [7] | log2 fold change (pinometostat) | log2 fold change [8] | log2 fold change [9] | log2 fold change [10] | log2 fold change [11] | log2 fold change [12] | log2 fold change [13] | log2 fold change [14] | log2 fold change [15]
1 | ITGAE (UniProt P38570) | inactive: 0.288 | inactive: -0.005 | inactive: 0.014 | inactive: -0.046 | inactive: 0.071 | inactive: -0.031 | inactive: 0.326 | inactive: 0.021 | inactive: -0.123 | inactive: -0.042 | inactive: 0.205 | inactive: -0.021 | inactive: 0.055 | – | – | – | – | – | – | –
2 | ITGA2B (UniProt P08514) | inactive: -0.046 | inactive: 0.023 | inactive: 0.06 | – | inactive: 0 | inactive: -0.045 | – | inactive: 0.054 | inactive: -0.172 | inactive: 0.462 | inactive: 0.026 | inactive: -0.064 | – | inactive: -0.051 | inactive: -0.023 | inactive: -0.133 | inactive: 0.065 | inactive: -0.13 | inactive: -0.045 | inactive: -0.121
3 | ITPR1 (UniProt Q14643) | inactive: 0.087 | inactive: -0.361 | inactive: 0.187 | inactive: -0.111 | inactive: -0.055 | inactive: -0.111 | inactive: -0.132 | inactive: 0.178 | inactive: -0.09 | inactive: -0.046 | inactive: 0.154 | inactive: -0.108 | – | – | – | – | – | – | – | –
4 | IDH3A isoform 2 (UniProt P50213) | inactive: 0.132 | – | inactive: -0.084 | inactive: -0.017 | – | inactive: 0.196 | inactive: 0.008 | – | – | inactive: 0.153 | – | inactive: 0.011 | – | active: -0.572 | inactive: 0.135 | inactive: 0.039 | inactive: -0.052 | inactive: 0.164 | inactive: -0.004 | inactive: 0.059
5 | IKZF1 isoform 2 (UniProt Q13422) | inactive: 0.017 | – | inactive: -0.006 | inactive: 0.046 | inactive: 0.047 | – | inactive: 0.252 | inactive: 0.152 | – | inactive: 0.031 | inactive: 0.159 | – | – | – | – | – | active: -0.38 | inactive: -0.016 | – | active: 0.418
6 | IGHG1 (UniProt P01857) | inactive: 0.638 | – | inactive: -0.313 | inactive: -0.014 | – | – | inactive: -0.029 | – | – | inactive: 0.023 | – | – | inactive: 0.188 | – | – | – | – | – | – | –
7 | INPP5K (UniProt Q9BT40) | inactive: 0.076 | inactive: -0.211 | inactive: 0.018 | – | inactive: 0.044 | inactive: 0.053 | – | inactive: -0.058 | inactive: -0.122 | inactive: -0.034 | inactive: -0.09 | inactive: 0.097 | inactive: -0.018 | – | – | – | inactive: -0.003 | inactive: -0.071 | – | inactive: 0.127
8 | INTS5 (UniProt Q6P9B9) | inactive: -0.027 | active: -0.403 | inactive: -0.086 | inactive: 0.097 | inactive: -0.138 | inactive: 0.076 | inactive: -0.039 | inactive: 0.019 | inactive: -0.232 | inactive: 0.052 | inactive: -0.064 | inactive: 0.033 | – | inactive: 0.025 | inactive: -0.023 | inactive: -0.18 | inactive: -0.126 | inactive: -0.033 | inactive: 0.529 | inactive: 0.073
9 | IP6K1 (UniProt Q92551) | inactive: -0.054 | inactive: -0.24 | inactive: 0 | inactive: -0.025 | inactive: -0.088 | – | inactive: 0.05 | inactive: -0.159 | inactive: -0.295 | active: -0.667 | inactive: 0.069 | – | – | inactive: 0.017 | inactive: 0.25 | inactive: 0.142 | inactive: -0.083 | inactive: 0.067 | inactive: -0.154 | inactive: 0.095
10 | IRF2BP1 (UniProt Q8IU81) | inactive: 0.091 | – | inactive: 0.031 | inactive: 0.011 | inactive: -0.032 | – | inactive: -0.118 | inactive: -0.047 | – | inactive: 0.088 | inactive: 0.089 | – | – | – | – | – | inactive: -0.081 | inactive: -0.034 | – | inactive: 0.139
11 | IGKC (UniProt P01834) | inactive: 0.432 | – | inactive: -0.295 | inactive: -0.298 | inactive: -0.646 | inactive: -0.636 | inactive: -0.094 | inactive: 0 | – | inactive: -0.137 | inactive: -0.32 | inactive: 0.099 | inactive: -0.164 | inactive: -0.383 | inactive: 0.249 | inactive: -0.613 | inactive: -0.427 | inactive: -0.094 | inactive: -0.255 | inactive: 0.116
12 | IGFBP5 (UniProt P24593) | inactive: -0.051 | inactive: -0.009 | inactive: 0.484 | – | – | – | – | – | inactive: -0.074 | inactive: -0.331 | – | – | – | – | – | – | inactive: 0.07 | inactive: 0.148 | – | inactive: -0.149

Some of the entries above, set out differently:

| Row | Target | log2 fold change (erlotinib) | log2 fold change [1] | log2 fold change [2] | log2 fold change [3] | log2 fold change [4] | log2 fold change (IRAK-1-4 Inhibitor I) | log2 fold change (ibrutinib) | log2 fold change (ralimetinib) | log2 fold change [5] | log2 fold change [6] | log2 fold change [7] | log2 fold change (pinometostat) | log2 fold change [8] | log2 fold change [9] | log2 fold change [10] | log2 fold change [11] | log2 fold change [12] | log2 fold change [13] | log2 fold change [14] | log2 fold change [15] |
| --- | --- | --- | --- | --- | --- | --- | --- | --- | --- | --- | --- | --- | --- | --- | --- | --- | --- | --- | --- | --- | --- |
| 7 | INPP5K (UniProt Q9BT40) | inactive: 0.076 | inactive: -0.211 | inactive: 0.018 | – | inactive: 0.044 | inactive: 0.053 | – | inactive: -0.058 | inactive: -0.122 | inactive: -0.034 | inactive: -0.09 | inactive: 0.097 | inactive: -0.018 | – | – | – | inactive: -0.003 | inactive: -0.071 | – | inactive: 0.127 |
| 8 | INTS5 (UniProt Q6P9B9) | inactive: -0.027 | active: -0.403 | inactive: -0.086 | inactive: 0.097 | inactive: -0.138 | inactive: 0.076 | inactive: -0.039 | inactive: 0.019 | inactive: -0.232 | inactive: 0.052 | inactive: -0.064 | inactive: 0.033 | – | inactive: 0.025 | inactive: -0.023 | inactive: -0.18 | inactive: -0.126 | inactive: -0.033 | inactive: 0.529 | inactive: 0.073 |
